Laboratory results published in PubChem BioAssay AID1487 (National Center for Advancing Translational Sciences (NCATS), 2009).
“And” between values parts separate entries of the source, which are not always exact repeats. Equal values may be shown once. Among all 200,000 compounds or so, about 25 (0.01%) were called active. This list was built around the results that the source calls inconclusive (neither active nor inactive); the mix of calls is not that of the screen. Calls follow the shape of the dose curve; as a rule, active = well fitted inhibition curve with a large enough effect in the signal ratio, with a control signal flat (not every such curve was filed as active); inconclusive = small, poorly fitted or top-dose-only effect, or effect the other way, or a change in a side signal; inactive = flat fitted curve, though single readings scatter; the % refers to the signal ratio. Potencies beside an inconclusive call are fits to weak or partial responses and may not hold up.

Assay: qHTS Assay for Modulators of Lamin A Splicing
Conditions: HeLa LMNA splicing GFP/RFP minigene ratio, 48 h; ratio change, negative = inhibition: at 46.1 µM (top of the series) unless noted
How it was run: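 S3 HeLa stable clones carrying a lamin A-EGFP splicing minigene plus DsRed2 were seeded at 600 cells/well in Opti-MEM with 2% FBS, pin-dosed and incubated 48 h at 37°C. Acumen cytometry (488 nm) gave the GFP/RFP total-intensity ratio.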
% is scaled to controls: 0 for no effect and ±100 for the full control effect; potency is read from the fitted curve at half-maximal effect.

| SMILES | ratio change, negative = inhibition | Potency |
| --- | --- | --- |
| N#CC1=C(N)N=C(SCc2ccccc2)C(C(N)=O)C12CCCCC2 (stereo not given) | inactive: -17.3% | – |
| O=C(Nc1ccccc1)c1nnsc1S(=O)c1ccc(Cl)cc1 (stereo not given) | inconclusive: 36% | – |
| COCCCNC(=O)c1ccc(-n2c(-c3ccccc3)cc3c2CCCC3)cc1 | inconclusive: -6.05% [at 46 µM] | – |
| CCCCOC(=O)C1=C(C)NC2(O)c3ccccc3C(=O)C12O (stereo not given) | inactive: 13.9% | – |
| COc1ccc(O)c(/C=N/NC(=O)c2ccc(OCc3cccc(Br)c3)cc2)c1 | – | inconclusive: 2.82 µM [inhibitor, full curve, poor fit] |
| OC[C@H]1O[C@@H]2O[C@H]3[C@H](O)[C@@H](O)[C@@H](O[C@H]4[C@H](O)[C@@H](O)[C@@H](O[C@H]5[C@H](O)[C@@H](O)[C@@H](O[C@H]6[C@H](O)[C@@H](O)[C@@H](O[C@H]7[C@H](O)[C@@H](O)[C@@H](O[C@H]8[C@H](O)[C@@H](O)[C@@H](O[C@H]1[C@H](O)[C@H]2O)O[C@@H]8CO)O[C@@H]7CO)O[C@@H]6CO)O[C@@H]5CO)O[C@@H]4CO)O[C@@H]3CO | inconclusive: 0.324% | – |
| COc1ccc(OCC(=O)OCc2cc(=O)n3nc(-c4cccs4)sc3n2)cc1 | inactive: 6.32% [at 46 µM] | – |
| C/C(=N\Nc1nc2ccccc2[nH]1)c1ccc(N2CCOCC2)cc1 | inconclusive: -24% [at 46 µM] | – |
| C[C@@H]1[C@H](O)[C@@H](C)/C=C/C=C/C=C/C=C/C=C/C=C/C=C/[C@H](O[C@@H]2O[C@H](C)[C@@H](O)[C@H](N)[C@@H]2O)C[C@@H]2O[C@](O)(C[C@@H](O)C[C@@H](O)[C@H](O)CC[C@@H](O)C[C@@H](O)CC(=O)O[C@H]1C)C[C@H](O)[C@H]2C(=O)O | – | inconclusive: 0.0794 µM [inhibitor, full curve] |
| Cc1ccc(S(=O)(=O)n2nc(-c3ccco3)nc2NCc2ccc(N(C)C)cc2)cc1 | inconclusive: -12.5% [at 46 µM] | – |
| CCOC(=O)CS(=O)(=O)c1nc(-c2ccccc2)cc(C(F)(F)F)n1 | inconclusive: -16.5% | – |
| CCN(CC)c1nc(-c2ccccn2)nc(-c2ccccc2)c1C#N | – | inconclusive: 2.24 µM [inhibitor, full curve] |
| Cc1ccc(SCCNS(=O)(=O)c2ccc3c(c2)OCCO3)cc1 | – | inconclusive: 31.6 µM [falling, single point] |
| N#CC(c1ccc(Cl)nn1)c1ccccc1Cl (stereo not given) | inactive: -7.45% | – |
| CN(C)S(=O)(=O)c1cc(NC(=O)COC(=O)Cc2ccc(Cl)cc2Cl)ccc1Cl | inactive: 8.59% | – |
| COc1ccc(C2C(C(C)=O)=C(O)C(=O)N2CCN(C)C)cc1OC (stereo not given) | inactive: -4.69% | – |
| Cn1c(SCc2ccccc2Cl)nc(=O)c2c1NC(=O)CC2c1cc(F)ccc1F (stereo not given) | inactive: -12.7% [at 46 µM] | – |
| Cc1ccc2nc(N=C(N)N)nc(C)c2c1 | – | inconclusive: 11.2 µM [inhibitor, partial curve] |
| CC1(C)CC(=O)c2cc(O)ccc2O1 | inconclusive: 8.17% | – |
| Cc1nnc(SCC(=O)c2ccc(C(C)C)cc2)s1 | inconclusive: 16.8% [at 46 µM] | – |
| O=C(Cn1c(=O)ccc2cc(S(=O)(=O)N3CCCC3)ccc21)Nc1ccc(Cl)cc1 | inconclusive: -9.68% [at 46 µM] | – |
| CCOC(=O)N1CCc2c(sc(NC(=O)CN3CCOCC3)c2C(=O)Nc2ccccc2)C1 | – | inconclusive: 25.1 µM [falling, single point] |
| Cc1ccc(OCc2nnc(SCC(=O)c3ccccc3)n2Cc2ccco2)cc1 | inconclusive: -5.23% | – |
| CC(C)NC[C@H](O)COc1ccc(CC(N)=O)cc1 | inconclusive: -8.98% and inconclusive: 9.41% | – |
| COc1ccc(S(=O)(=O)NC(CC(=O)NCc2ccco2)C(C)C)cc1 (stereo not given) | inactive: -6.17% | – |

One compound at a time, as listed above. Order of values: ratio change, negative = inhibition | Potency
`Cc1ccc(SCCNS(=O)(=O)c2ccc3c(c2)OCCO3)cc1` in the list: – | inconclusive: 31.6 µM [falling, single point]
`C[C@@H]1[C@H](O)[C@@H](C)/C=C/C=C/C=C/C=C/C=C/C=C/C=C/[C@H](O[C@@H]2O[C@H](C)[C@@H](O)[C@H](N)[C@@H]2O)C[C@@H]2O[C@](O)(C[C@@H](O)C[C@@H](O)[C@H](O)CC[C@@H](O)C[C@@H](O)CC(=O)O[C@H]1C)C[C@H](O)[C@H]2C(=O)O` in the list: – | inconclusive: 0.0794 µM [inhibitor, full curve]
`COc1ccc(OCC(=O)OCc2cc(=O)n3nc(-c4cccs4)sc3n2)cc1` in the list: inactive: 6.32% [at 46 µM] | –

Next part

| SMILES | ratio change, negative = inhibition | Potency |
| --- | --- | --- |
| CCc1ccccc1NC(=O)Nc1cc(C(=O)NCc2ccccc2OC)ccc1N1CCCC1 | inconclusive: 27.9% [at 46 µM] | – |
| Cc1nc2ccc(Cl)cc2c(-c2ccccc2Cl)c1CC(=O)O | inconclusive: -31.1% | – |
| COc1ccccc1/C=C/c1onc(C)c1S(=O)(=O)N1CCC(C(=O)N2CCC(C)CC2)CC1 | inactive: 13.2% [at 46 µM] | – |
| Cc1ccc(NC(=O)c2cc(N3C(=O)C=CC3=O)ccc2N2CCOCC2)cc1Cl | inconclusive: 74.7% | – |
| CCOc1ccc(OCCSc2nc3ccccc3[nH]2)cc1 | – | inconclusive: 11.2 µM [falling, partial curve] |
| CC(C)(C)NC(=O)c1oc2ccccc2c1COc1ccccc1 | inactive: -21.7% | – |
| Cc1cccn2c(=O)cc(COc3ccc(NC(=O)C(C)C)cc3)nc12 | inconclusive: 14.2% [at 46 µM] | – |
| Cc1cc(C)nc(/N=C2\NC(=O)CC(C(=O)O)N2c2ccc(Cl)cc2Cl)n1 (stereo not given) | inconclusive: 7.08% [at 46 µM] | – |
| Cc1nc2ccccc2cc1OCc1ccccc1 | inactive: 7.84% | – |
| C[C@@H]1[C@H](C)CC[C@@]2(C(=O)O)CC[C@]3(C)C(=CC[C@H]4[C@@]5(C)CC[C@@H](O)C(C)(C)[C@@H]5CC[C@@]43C)[C@@H]12 | inactive: -2.97% | – |
| CCn1nnc(NC(=O)COc2ccc(C3CCCCC3)cc2)n1 | – | inconclusive: 31.6 µM [falling, single point] |
| CN1CCc2cccc3c2[C@H]1Cc1ccc(O)c(O)c1-3 | – | inconclusive: 35.5 µM [cytotoxic, single point] |
| Cc1c(C(=O)c2ccc(F)cc2)c2ccccn2c1CCc1ccccn1 | inactive: -16.9% [at 46 µM] | – |
| CCCNC(=O)Cn1nc(-c2ccc(C)c(C)c2)c2cnc3ccc(OC)cc3c21 | inconclusive: -24.1% [at 46 µM] | – |
| O=S(=O)(NCCOc1ccc(F)cc1)c1ccc2c(c1)OCCO2 | inconclusive: -14.6% | – |
| CC(C)C1CC(CCNCc2ccc(N(C)C)cc2)(c2ccccc2)CCO1 (stereo not given) | inactive: -16.2% | – |
| O=C(Nc1ccccc1-c1nnn(CC(=O)N2CCCc3ccccc32)n1)c1ccco1 | inconclusive: 19.2% | – |
| CC(=O)OCCNC(=O)c1cccnc1 | inactive: 12.7% | – |
| CCC(NC(C)C)C(O)c1ccc(O)c(O)c1 (stereo not given) | inconclusive: 4.97% | – |
| Cn1c(=O)cc(OCCCC(=O)Nc2cccnc2)c2ccccc21 | inconclusive: -34.1% | – |
| Cc1ccc(CN2C3CCCC2CC(NC(=O)c2ccc(C)cc2)C3)cc1 (stereo not given) | inconclusive: -7.39% [at 46 µM] | – |
| CCOC(=O)N1CCN(CCC(=O)c2ccc(Cl)cc2)CC1 | – | inconclusive: 15.8 µM [inhibitor, single point] |
| CCOc1ncccc1C(=O)Nc1nc(C(C)(C)C)cs1 | inconclusive: -5.13% [at 46 µM] | – |
| CS(=O)(=O)N(CC(=O)Nc1c(F)cccc1F)c1ccc(C23CC4CC(CC(C4)C2)C3)cc1 | inconclusive: 164% | – |
| CNC(=O)CC1C(=O)N(c2ccc(Cl)cc2)C(=S)N1CCc1ccc(OC)c(OC)c1 (stereo not given) | – | inconclusive: 35.5 µM [cytotoxic, single point] |

| SMILES | ratio change, negative = inhibition | Potency |
| --- | --- | --- |
| CCOC(=O)c1cnc2c(cnn2C)c1Cl | inconclusive: 11.1% [at 46 µM] | – |
| Cc1ccc(NC(=O)CCCCCC2NC(=O)NC2C)cc1 (stereo not given) | inactive: 1.75% | – |
| CCOc1cc(C(=O)OCC(=O)Nc2cc(C)on2)ccc1OCC(C)C | inconclusive: 23.3% [at 46 µM] | – |
| CCCNc1ncnc2c1c(-c1ccccc1)cn2-c1ccccc1 | – | inconclusive: 20 µM [inhibitor, partial curve, poor fit] |
| Cc1cc(O)cc(O)c1-c1onc(C(F)(F)F)c1-c1cscn1 | – | inconclusive: 10 µM [fluorescent, partial curve] |
| S=C(Nc1ccc2cn[nH]c2c1)Nc1ccccc1Cl | inconclusive: 1.77% | – |
| Cc1ccc(OCC(=O)NNC(=S)NCc2ccccc2)cc1 | – | inconclusive: 25.1 µM [activator, single point] |
| O=C1NC(=S)S/C1=C\c1ccc(SCc2ccccc2)o1 | – | inconclusive: 11.2 µM [falling, partial curve] |
| C=CCNc1sc(C(=O)c2ccccc2)c(N)c1-c1nc2ccccc2s1 | inconclusive: -20.7% | – |
| CCOc1ccc(S(=O)(=O)NCCC2=CCCCC2)c2ccccc12 | inconclusive: -33.1% | – |
| CCOC(=O)C(C)n1nc(/C=C/c2ccc(OC)cc2)ccc1=O (stereo not given) | inconclusive: -19% [at 46 µM] | – |
| O=[N+]([O-])c1cccc(S(=O)(=O)N/N=C/c2ccc(O)cc2)c1 | inconclusive: 13.8% [at 46 µM] | – |
| Cc1nc2cc(NCc3nc4ccccc4n3Cc3ccccc3)ccc2n1C | inconclusive: -8.15% | – |
| CN(c1ccccc1)S(=O)(=O)c1cccc(NC(=O)Nc2ccc(Cl)cc2C#N)c1 | inconclusive: -20.9% | – |
| Cc1csc(OCC(=O)Nc2ccc(C)c(C)c2)n1 | inconclusive: 12.4% | – |
| CCOC(=O)C(=NC(C)CC)NNc1cccc(C(F)(F)F)c1 (stereo not given) | inactive: 8.15% | – |
| Cc1c(C(=O)OC(C)C(C)C[N+](C)(C)C)oc2ccccc12 (stereo not given) | inconclusive: 36.2% | – |
| O=C(Cn1cc(S(=O)(=O)Cc2cccc(Cl)c2)c2ccccc21)NCc1ccccc1Cl | inactive: 10.6% [at 46 µM] | – |
| CN(C)CCNC(=S)NC1CCCCC1 | inactive: 8.34% [at 46 µM] | – |
| CC(C)(C)NC(=O)CSc1nc(-c2ccccc2)cc(=O)[nH]1 | inconclusive: 3.15% [at 46 µM] | – |
| Cc1ccc(C)c2c1[nH]c1ccccc12 | inactive: -2.37% | – |
| CCc1ccccc1NC(=O)C1CCN(c2nc3ccccc3[nH]2)CC1 | inconclusive: -0.194% [at 46 µM] | – |
| CC(C)(C)C1=CC(=Nc2ccccc2N)C=C(C(C)(C)C)C1=O | inactive: -7.78% | – |
| O=c1ccc2ccc(O)c(O)c2o1 | – | inconclusive: 25.1 µM [inhibitor, partial curve, poor fit] |
| C[C@]12C=CC(=O)C=C1CCC1C3CC[C@](O)(C(=O)CO)[C@@]3(C)CC3OC312 (stereo not given in full) | inconclusive: 18% [at 46 µM] | – |
